Laboratory results: publication PMC12670160, “A drug-repurposing screen of FDA- and EMA-approved drugs identifies two NF-κB inhibitors active against eumycetoma” (Journal of Antimicrobial Chemotherapy, 2025)
Where a name gives a salt, the structure may show the parent alone. In all, about 5,300 compounds went through this assay and about 130 (2.5%) showed an effect of 50% or more. The list shows a part of the results.

System: M. mycetomatis strain mm55
Details: primary screen, metabolic activity vs growth control; 96 h, 2 µM; inhibitor

SMILES | % viability [%]
COC(=O)c1ccccc1O [ONC0003750, methylsalicylate] | 102.4
C[C@@H]1CN([C@H]2CC[C@](C#N)(c3ccc(F)cc3)CC2)CC[C@]1(C(=O)O)c1ccccc1 [ONC0002918, levocabastine] | 70.8
O=C(O)CC[C@H]1CC[C@@](c2cc(F)ccc2F)(S(=O)(=O)c2ccc(Cl)cc2)CC1 [ONC0005079, mk0752] | 51.35
Cc1nnc(-c2ccc3occ(-c4ccc([S+](C)[O-])cc4)c3c2)o1 (centres unmarked) [ONC0000062, tcs2002] | 113.4
COc1ccccc1N1CCN(CC(O)COc2cccc3ccccc23)CC1 (centres unmarked) [ONC0005382, naftopidil] | 131.2
CN1CCCC(CC2c3ccccc3Sc3ccccc32)C1 (centres unmarked) [ONC0002318, metixene] | 53.15
CN1CCC(=C2c3ccccc3CC(=O)c3sccc32)CC1 [ONC0003423, ketotifen fumarate] | 76.67
CCN1C(=O)NC(c2ccccc2)C1=O (centres unmarked) [ONC0003653, ethotoin] | 75.36
Cn1c(=O)cnn(CCCCN2CCN(c3ncccn3)CC2)c1=O [ONC0001766, eptapirone] | 90.7
O=c1[nH]cnc2c([C@@H]3N[C@H](CO)[C@@H](O)[C@H]3O)c[nH]c12 [ONC0001813, forodesine hydrochloride] | 95.12
COc1ccc(CCNCc2ccc(OCc3ccc(Cl)nc3)c(OC)c2)cc1OC [ONC0003066, sbe13] | 68.66
CO[C@@H]1COCC[C@@H]1N[C@@H]1CC[C@@](C(=O)N2CCc3ncc(C(F)(F)F)cc3C2)(C(C)C)C1 [ONC0002204, mk0812 succinate] | 88.14
CC(C)(C)C(=O)OCOP(=O)(COCCn1cnc2c(N)ncnc21)OCOC(=O)C(C)(C)C [ONC0004847, adefovir dipivoxil preveon hepsera] | 126.5
CCOc1ccc(Cc2cc([C@@H]3O[C@H](SC)[C@@H](O)[C@H](O)[C@H]3O)ccc2Cl)cc1 [ONC0001906, sotagliflozin] | 81.25
N#C/C(=C\c1ccc(O)c(O)c1)C(N)=O [ONC0003569, tyrphostinag99] | 115.4
Cc1ccc(NC(=O)C(C)C)cc1C1CCN(Cc2ccc(Oc3ccc(F)c(F)c3)cc2)CC1 [ONC0000242, snap94847] | 62.1
O=c1ccc2ccc(O)c(O)c2o1 [ONC0004734, daphnetin] | 134.1
CCOc1ccc(-n2c(C(C)N(Cc3cccnc3)C(=O)Cc3ccc(F)c(C(F)(F)F)c3)nc3ncccc3c2=O)cc1 (centres unmarked) [ONC0002523, nbi74330] | 76.52
N#CC(c1ccc(Cl)cc1)c1c(Cl)cc(-n2ncc(=O)[nH]c2=O)cc1Cl (centres unmarked) [ONC0004038, diclazuril] | 72.76
OCc1cc([C@@H](O)CNCCCCCCOCCOCc2c(Cl)cccc2Cl)ccc1O [ONC0001946, vilanterol trifenatate] | 94.19
C(=C\c1ccccc1)/CN1CCN(CCOC(c2ccccc2)c2ccccc2)CC1 [ONC0001630, gbr12783] | 65.14

SMILES | % viability [%]
CC(C)Oc1ccc(Cc2ccc(NC3=NCCN3)cc2)cc1 [ONC0002485, ro1138452] | 58.53
COc1cc(OC)c(C(=O)CCCN2CCCC2)c(OC)c1 [ONC0003999, buflomedil hydrochloride] | 83.06
NC(=O)CN1Cc2ccccc2OC1=O [ONC0003769, caroxazone] | 98.29
CCC(=O)c1ccc(O)cc1 [ONC0005323, paroxypropione] | 97.45
CC1Nc2ccc(Cl)cc2S(=O)(=O)N1 (centres unmarked) [ONC0000764, idra21] | 80.26
Oc1ccc(Cl)c2cccnc12 [ONC0000285, cloxyquin] | 96.09
Nc1c(Br)cc(Br)cc1CN[C@H]1CC[C@H](O)CC1 [ONC0004141, ambroxol hydrochloride] | 63.05
O=C(Nc1ccc(O)cc1)c1ccccc1O [ONC0002775, osalmid] | 94.91
C=CC(=O)Nc1cccc(Nc2nc(Nc3ccc(N4CCN(C(C)=O)CC4)cc3OC)ncc2C(F)(F)F)c1 [ONC0004367, rociletinib co1686 avl301] | 125.3
CS(=O)(=O)CCNCc1ccc(-c2ccc3ncnc(Nc4ccc(OCc5cccc(F)c5)c(Cl)c4)c3c2)o1 [ONC0004610, lapatinib gw572016 ditosylate] | 72
C[C@@H]([C@H](C)O)[C@H](N)C(=O)O [ONC0005485, id1101] | 81.96
Nc1ccc(-c2nc3ccc(-c4nc5ccc(N)cc5[nH]4)cc3[nH]2)cc1 [ONC0001329, ro907501] | 105.6
C[N+](C)(C)CCOP(=O)(O)OP(=O)(O)OC[C@H]1O[C@@H](n2ccc(N)nc2=O)[C@H](O)[C@@H]1O [ONC0005601, citicoline] | 130.9
CC(C)(Sc1cc(C(C)(C)C)c(O)c(C(C)(C)C)c1)Sc1cc(C(C)(C)C)c(O)c(C(C)(C)C)c1 [ONC0000665, probucol] | 99.79
COC(=O)c1sccc1S(=O)(=O)Nc1ccc(Nc2ccccc2)cc1OC [ONC0000053, gsk0660] | 99.51
Cc1ccc(OC[C@@H](O)[C@H](C)NC(C)C)c2c1CCC2 [ONC0001929, ici118551] | 52.35
N[C@@H]1[C@@H](O)[C@H](O)[C@@H](CO)O[C@H]1O [ONC0000404, glucosamine hydrochloride] | 56.73
CCC[C@H](Nc1nc(-c2ccc(NC(=O)NCC)c(OC)c2)ncc1C)c1cccnc1 [ONC0004959, cyt997] | 62.33
COc1cc2ncc(-c3ccccc3)nc2cc1OC [ONC0004511, tyrphostin ag 1296 ag 1296] | 102.9
O=c1cc(N2CCNCC2)oc2c(-c3ccccc3)cccc12 [ONC0003548, ly303511] | 112.3

A stretch of the results above, for reference:
SMILES | % viability [%]
Cc1nnc(-c2ccc3occ(-c4ccc([S+](C)[O-])cc4)c3c2)o1 (centres unmarked) [ONC0000062, tcs2002] | 113.4
COc1ccccc1N1CCN(CC(O)COc2cccc3ccccc23)CC1 (centres unmarked) [ONC0005382, naftopidil] | 131.2
